From PMC12990037, “Discovery of Two Structurally Distinct Classes of Inhibitors Targeting the Nuclease MUS81 and Enhancing Efficacy of Chemotherapy in Cancer Cells” (Journal of Medicinal Chemistry, 2026)
Results are given in words; binding and its absence hold for the method and conditions named. Some results given as binding are weak or reduced against the parent protein; the word gives no strength.

T1: MUS81 (full length, human) (human) (UniProt Q96NY9)
T1 sequence: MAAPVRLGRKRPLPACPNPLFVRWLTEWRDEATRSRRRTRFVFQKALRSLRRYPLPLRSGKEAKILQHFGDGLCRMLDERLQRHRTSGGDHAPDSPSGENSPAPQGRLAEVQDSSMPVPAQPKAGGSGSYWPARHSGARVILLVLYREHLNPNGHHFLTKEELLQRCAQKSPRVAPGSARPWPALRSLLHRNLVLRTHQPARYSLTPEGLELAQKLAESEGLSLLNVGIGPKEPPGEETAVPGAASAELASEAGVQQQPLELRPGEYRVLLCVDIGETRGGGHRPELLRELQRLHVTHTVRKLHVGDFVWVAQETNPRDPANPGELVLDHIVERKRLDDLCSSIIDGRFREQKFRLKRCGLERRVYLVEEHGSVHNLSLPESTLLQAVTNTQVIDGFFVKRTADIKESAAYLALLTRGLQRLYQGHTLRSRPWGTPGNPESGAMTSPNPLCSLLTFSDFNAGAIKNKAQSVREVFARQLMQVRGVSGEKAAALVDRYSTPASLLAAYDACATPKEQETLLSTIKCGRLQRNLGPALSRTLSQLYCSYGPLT

T2: truncated MUS81 (amino acids 246-551) (human) (UniProt Q96NY9)
T2 sequence: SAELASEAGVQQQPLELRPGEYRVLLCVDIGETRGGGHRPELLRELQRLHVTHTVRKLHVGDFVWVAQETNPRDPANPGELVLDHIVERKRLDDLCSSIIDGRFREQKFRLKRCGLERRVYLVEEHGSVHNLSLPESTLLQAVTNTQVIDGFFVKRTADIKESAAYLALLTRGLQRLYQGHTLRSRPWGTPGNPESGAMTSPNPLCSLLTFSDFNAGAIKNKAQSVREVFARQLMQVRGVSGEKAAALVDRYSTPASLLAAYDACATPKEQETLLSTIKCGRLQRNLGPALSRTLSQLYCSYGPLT

B1: EME1 (full length, human) (protein, UniProt Q96AY2 1-570)
chain: MALKKSSPSLDSGDSDSEELPTFAFLKKEPSSTKRRQPEREEKIVVVDISDCEASCPPAPELFSPPVPEIAETVTQTQPVRLLSSESEDEEEFIPLAQRLTCKFLTHKQLSPEDSSSPVKSVLDHQNNEGASCDWKKPFPKIPEVPLHDTPERSAADNKDLILDPCCQLPAYLSTCPGQSSSLAVTKTNSDILPPQKKTKPSQKVQGRGSHGCRQQRQARQKESTLRRQERKNAALVTRMKAQRPEECLKHIIVVLDPVLLQMEGGGQLLGALQTMECRCVIEAQAVPCSVTWRRRAGPSEDREDWVEEPTVLVLLRAEAFVSMIDNGKQGSLDSTMKGKETLQGFVTDITAKTAGKALSLVIVDQEKCFSAQNPPRRGKQGANKQTKKQQQRQPEASIGSMVSRVDAEEALVDLQLHTEAQAQIVQSWKELADFTCAFTKAVAEAPFKKLRDETTFSFCLESDWAGGVKVDLAGRGLALVWRRQIQQLNRVSLEMASAVVNAYPSPQLLVQAYQQCFSDKERQNLLADIQVRRGEGVTSTSRRIGPELSRRIYLQMTTLQPHLSLDSAD
B2: truncated EME1 (amino acids 178-570) (domain or fragment, UniProt Q96AY2 178-570)
chain: GQSSSLAVTKTNSDILPPQKKTKPSQKVQGRGSHGCRQQRQARQKESTLRRQERKNAALVTRMKAQRPEECLKHIIVVLDPVLLQMEGGGQLLGALQTMECRCVIEAQAVPCSVTWRRRAGPSEDREDWVEEPTVLVLLRAEAFVSMIDNGKQGSLDSTMKGKETLQGFVTDITAKTAGKALSLVIVDQEKCFSAQNPPRRGKQGANKQTKKQQQRQPEASIGSMVSRVDAEEALVDLQLHTEAQAQIVQSWKELADFTCAFTKAVAEAPFKKLRDETTFSFCLESDWAGGVKVDLAGRGLALVWRRQIQQLNRVSLEMASAVVNAYPSPQLLVQAYQQCFSDKERQNLLADIQVRRGEGVTSTSRRIGPELSRRIYLQMTTLQPHLSLDSAD

What was measured:
[1] = target: T1, MUS81 (full length, human) (human); assay: co-purification; both proteins co-expressed in E. coli; lysate passed over Q Sepharose and SP Sepharose, then His-Select Nickel Affinity Gel and heparin; the complex was kept through all steps
[2] = target: T2, truncated MUS81 (amino acids 246-551) (human); assay: as above

Binder | binding [1] | binding [2]
B1 | binds | –
B2 | – | binds
